{"source": "paper doi:10.1101/2020.08.27.270058", "key": {"[1]": {"molecular_target": "T1, MglB^ΔCT (Myxococcus xanthus) (UniProt Q1DB03)", "T1 sequence": "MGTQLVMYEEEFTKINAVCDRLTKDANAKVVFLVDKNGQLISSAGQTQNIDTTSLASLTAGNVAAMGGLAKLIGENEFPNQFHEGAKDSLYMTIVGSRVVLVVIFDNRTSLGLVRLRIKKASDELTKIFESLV", "experiment": "SEC"}, "[2]": {"molecular_target": "T1, MglB^ΔCT (Myxococcus xanthus)", "experiment": "SAXS"}}, "note": "Results are given in words; binding and its absence hold for the method and conditions named. A result given as binding can be weak or reduced; the word gives no strength.", "data": [{"substance": "MglC (Myxococcus xanthus)", "values": [{"measurement": "binding", "setting": "[1]", "value": "binds"}, {"measurement": "binding", "setting": "[2]", "value": "binds"}]}]}
